Experimental data reported in PubChem BioAssay AID1671190 (National Center for Advancing Translational Sciences (NCATS), 2021).
“And” between values parts separate entries of the source, which are not always exact repeats. Equal entries are not always repeated. Among all 580,000 compounds or so, about 6,100 (1.1%) were called active. This list was built around the results that the source calls inconclusive (neither active nor inactive); the mix of calls is not that of the screen. Calls come from the whole dose curve; as a rule, active = well fitted inhibition curve with a large enough effect; inconclusive = small, poorly fitted or top-dose-only effect, or another doubt; inactive = no such curve, though single readings can be large or run the other way. Where the call is inconclusive, the potency comes from a doubtful curve fit.

Chains of the proteins cited; added tags and fusions are not shown. Lines headed by an entry give the natural chain unless they say otherwise; changes in a name come on top.
UniProt P18054: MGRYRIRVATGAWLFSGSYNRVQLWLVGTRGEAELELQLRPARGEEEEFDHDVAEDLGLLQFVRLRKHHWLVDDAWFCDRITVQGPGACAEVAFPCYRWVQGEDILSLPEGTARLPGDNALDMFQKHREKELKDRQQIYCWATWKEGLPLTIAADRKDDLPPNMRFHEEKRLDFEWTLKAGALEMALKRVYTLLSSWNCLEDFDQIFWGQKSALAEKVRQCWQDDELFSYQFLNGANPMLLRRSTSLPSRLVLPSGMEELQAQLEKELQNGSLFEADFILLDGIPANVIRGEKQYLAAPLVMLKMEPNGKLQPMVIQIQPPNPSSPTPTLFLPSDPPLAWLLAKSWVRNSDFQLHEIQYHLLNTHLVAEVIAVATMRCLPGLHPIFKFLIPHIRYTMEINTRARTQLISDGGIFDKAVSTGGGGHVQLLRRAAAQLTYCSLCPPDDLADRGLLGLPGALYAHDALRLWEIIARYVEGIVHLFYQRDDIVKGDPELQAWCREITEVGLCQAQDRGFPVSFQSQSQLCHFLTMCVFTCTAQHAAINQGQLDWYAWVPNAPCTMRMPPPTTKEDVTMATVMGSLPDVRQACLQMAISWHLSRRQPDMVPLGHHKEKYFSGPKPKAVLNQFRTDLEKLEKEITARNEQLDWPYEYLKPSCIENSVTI

The compounds below were run against Polyunsaturated fatty acid lipoxygenase ALOX12 (Homo sapiens) (UniProt P18054) (assay: Primary qHTS assay for inhibitors of human arachidonate 12S-lipoxygenase (ALOX12): Round 2). Settings: purified 12hLO, xylenol orange hydroperoxide absorbance; activity change, negative = inhibition: at 108 µM (top of the series) unless noted.
Procedure, shortened: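 Purified human 12hLO (150 nM final) in 25 mM Hepes, 0.01% Triton X-100, pH 7.0 was preincubated 15 min at room temperature with compound. Then 40 uM arachidonic acid was added, 30 min. Hydroperoxide was read by Fe-XO absorbance ratio 573/405 nm.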
% is set by controls: 0 for no effect and ±100 for the full control effect; potency is the fitted concentration of half-maximal effect.

Row | Compound | activity change, negative = inhibition | Potency
1 | CC(C)Cc1ccc(CN2CCCC(NC(=O)c3cnc4ccccn4c3=O)C2)cc1 (stereo unspecified) | inactive: -2.97% | 
2 | Cc1cc(C)c(C#N)c(SCc2[nH]nc3c2C(c2ccccc2)C(C#N)=C(N)O3)n1 (stereo unspecified) |  | inconclusive: 44.7 µM [inhibitor, partial curve, poor fit]
3 | Cc1cc(C)c2c(n1)sc1c(-c3ccccc3)c(C#N)c(N)nc12 |  | inconclusive: 50.1 µM [inhibitor, partial curve, poor fit]
4 | O=C(Cn1ccn2nc(-c3ccccc3)cc2c1=O)Nc1cccc(Cl)c1 | inactive: -12.8% | 
5 | O=C(C1CCCN(Cc2cccnc2)C1)N1CCCCC1 (stereo unspecified) |  | inconclusive: 0.224 µM [inhibitor, full curve, poor fit]
6 | CSCCC(NC(=O)COc1ccccc1)C(=O)N(C)CC(=O)Nc1ccc(Cl)cc1 (stereo unspecified) |  | inconclusive: 39.8 µM [inhibitor, partial curve, poor fit]
7 | COC(=O)c1c(C(=O)OC)c(C)n(Cc2ccco2)c1C | inconclusive: -43.3% [inhibitor] | 
8 | CCC(=O)Nc1ccc(/C(C)=N\NC(=O)c2ccc(C)s2)cc1 |  | inconclusive: 5.01 µM [inhibitor, full curve, poor fit]
9 | CCc1cc(-c2n[nH]c(C)c2Oc2ccc(C(C)C)cc2)c(O)cc1O |  | inconclusive: 50.1 µM [inhibitor, partial curve, poor fit]
10 | O=C(NCCNc1ccc([N+](=O)[O-])cc1)c1cccc(Br)c1 | inactive: -1.23% | 
11 | N#Cc1ccc(O[C@@H]2CCOC[C@H]2NC(=O)CCc2cc(=O)[nH]o2)cc1 |  | inconclusive: 25.1 µM [inhibitor, partial curve]
12 | CCN(CC)S(=O)(=O)c1cccc(NC(=O)c2ccc(-n3nc(C)cc3C)cc2)c1 | inactive: -2.82% | 
13 | N#Cc1ccc(C(=O)N/N=C/c2cn(CC(=O)O)c3ccccc23)c(F)c1 |  | inconclusive: 70.8 µM [inhibitor, partial curve, poor fit]
14 | CN(C)CCNC(=O)C1(C)CN(Cc2ccccc2)Cc2ccc(N3CCOCC3)nc21 (stereo unspecified) | inactive: 17.8% [at 176 µM] | 
15 | O=C(O)c1cc(N/N=C/C(Cl)=C/c2ccccc2)ccc1Cl |  | inconclusive: 50.1 µM [inhibitor, partial curve, poor fit]
16 | COc1ccc(C=O)cc1COc1ccccc1C=O | inactive: 16.1% | 
17 | COC(=O)c1sccc1NC(=O)CSc1ccc(Cl)cc1 | inactive: -0.215% | 
18 | CCNC(=O)NC(=O)CSc1ccc2ccccc2n1 | inactive: -3.95% | 
19 | CC(=O)c1cc(C#N)c(SCc2ccccn2)nc1C |  | inconclusive: 35.5 µM [inhibitor, single point]
20 | S=C(NCc1ccccc1Cl)Nc1cc(Cl)cc(Cl)c1 |  | inconclusive: 50.1 µM [inhibitor, partial curve, poor fit]
21 | O=C(CNC(=O)c1ccco1)N/N=C/c1cc(Br)ccc1O |  | inconclusive: 10 µM [inhibitor, partial curve, poor fit]
22 | CCCc1cc(=O)c2c(O)ccc(OC)c2o1 |  | active: 25.1 µM

Row | Compound | activity change, negative = inhibition | Potency
23 | COCc1cn(C[C@H]2C[C@@H](NC(=O)NC3CCCC3)[C@H](O)[C@@H]2O)nn1 |  | inconclusive: 25.1 µM [inhibitor, full curve, poor fit]
24 | CC(=Nc1cccc(C)c1)c1sc2ccccc2c1O | inactive: 16.9% | 
25 | Cc1ccc(NC(=O)Cc2ccc(-c3ccccc3)cc2)nc1 | inactive: 4.47% | 
26 | CCOC(=O)N/N=C/c1ccccc1OCC(=O)O | inactive: -27.8% | 
27 | CCCOc1ccc(N)cc1N |  | inconclusive: 12.6 µM [inhibitor, partial curve, poor fit]
28 | CCCCC[C@@H]1C=C(C(=O)O)[C@H](c2ccc(C#N)cc2)N1S(=O)(=O)c1ccc(C)cc1 |  | inconclusive: 39.8 µM [inhibitor, partial curve, poor fit]
29 | Cc1ccccc1N1C(=O)CC(N(O)c2ccccc2)C1=O (stereo unspecified) |  | inconclusive: 44.7 µM [inhibitor, partial curve, poor fit]
30 | COc1ccc(CN(C)CC(O)COc2ccccc2C(C)C)cc1OC (stereo unspecified) |  | inconclusive: 0.398 µM [inhibitor, full curve, poor fit]
31 | CCOc1ccc(CN2CCN(Cc3cccn3-c3cccnc3)CC2CCO)cc1 (stereo unspecified) | inactive: -1.41% | 
32 | COc1ccc(-c2nc3cnc(N4CCN(C)CC4)nc3n(CCC#N)c2=O)cc1 |  | inconclusive: 39.8 µM [inhibitor, partial curve, poor fit]
33 | Cn1c(OCc2cccnc2)nc2c1c(=O)n(Cc1ccc(F)cc1)c(=O)n2C |  | inconclusive: 112 µM [inhibitor, single point]
34 | O[C@H]1CN(Cc2cccs2)[C@@H](c2ccccc2)C[C@@H]1n1cc(-c2ccc(F)cc2)nn1 | inactive: -11.3% | 
35 | O=C1C=C(c2cccc(Cl)c2O)C[C@@H](c2ccc(Cl)cc2)C1 |  | active: 11.2 µM
36 | CCOc1ccc(S(=O)(=O)N2CCN(c3ccc(OC)cc3)CC2)c2cccnc12 |  | inconclusive: 44.7 µM [inhibitor, partial curve, poor fit]
37 | Oc1nc(Nc2ccc(Cl)cc2Cl)sc1/C=C1\C=Nc2ccccc21 |  | inconclusive: 50.1 µM [inhibitor, partial curve, poor fit]
38 | COc1cc(CCC(=O)OCC(=O)NC(=O)c2ccc(Cl)cc2)cc(OC)c1OC |  | inconclusive: 44.7 µM [inhibitor, partial curve, poor fit]
39 | CCCNC(=O)c1ccc2[nH]c3c(c2c1)CCCC3 | inactive: 0.74% | 
40 | COc1ccc(C(=O)NCC2Cn3cccc3C(=O)N2CC(C)C)cc1 (stereo unspecified) | inactive: 29.8% | 
41 | Cc1cnc(SCc2ccccn2)nc1C1CCCN(C(=O)c2coc3c2C(=O)CCC3)C1 (stereo unspecified) |  | inconclusive: 100 µM [inhibitor, single point]
42 | O=C(CCNC(=O)N1CCn2c1nc1ccccc12)NC1CC1 |  | inconclusive: 0.562 µM [inhibitor, partial curve, poor fit]
43 | CCn1c(C)c(C(C)=O)c(N2CCN(c3cccc(Cl)c3)CC2)nc1=S |  | inconclusive: 22.4 µM [inhibitor, partial curve, poor fit]
44 | Cc1cccc(NC(=O)c2sc3nc(N)c(C#N)cc3c2N)c1 |  | inconclusive: 44.7 µM [inhibitor, partial curve, poor fit]

Four compounds drawn at random from those above:
Row | Compound | activity change, negative = inhibition | Potency
43 | CCn1c(C)c(C(C)=O)c(N2CCN(c3cccc(Cl)c3)CC2)nc1=S |  | inconclusive: 22.4 µM [inhibitor, partial curve, poor fit]
37 | Oc1nc(Nc2ccc(Cl)cc2Cl)sc1/C=C1\C=Nc2ccccc21 |  | inconclusive: 50.1 µM [inhibitor, partial curve, poor fit]
35 | O=C1C=C(c2cccc(Cl)c2O)C[C@@H](c2ccc(Cl)cc2)C1 |  | active: 11.2 µM
41 | Cc1cnc(SCc2ccccn2)nc1C1CCCN(C(=O)c2coc3c2C(=O)CCC3)C1 (stereo unspecified) |  | inconclusive: 100 µM [inhibitor, single point]

Remaining list, next part:

Row | Compound | activity change, negative = inhibition | Potency
45 | CCc1cc(-c2nnn(CCC3COCCO3)c2CC)cc(CC)c1-c1cn(Cc2ccc3ccccc3c2)nn1 (stereo unspecified) |  | inconclusive: 44.7 µM [inhibitor, single point]
46 | Cc1cc(C)nc(N2CCC(C(=O)NCCc3ccc(F)cc3)CC2)n1 | inactive: 15.6% | 
47 | COc1ccc(C2SCC(=O)N2c2c(C)n(C)n(-c3ccccc3)c2=O)cc1 (stereo unspecified) |  | inconclusive: 141 µM [inhibitor, single point]
48 | Clc1cccc(-c2cc3nc4c(c(N5CCN(c6cnccn6)CC5)n3n2)CCCC4)c1 | inactive: 0% | 
49 | Cc1nc2ccc(N=NN(C)C)cc2[nH]1 |  | inconclusive: 50.1 µM [inhibitor, single point]
50 | Cc1ccccc1C(=O)Nc1cccc(C(=O)Nc2ccccc2C(=O)O)c1 |  | inconclusive: 8.91 µM [inhibitor, full curve, poor fit]
51 | O=C(CNC(=O)c1ccc(S(=O)(=O)N2CCCC2)cc1)N/N=C/c1ccc(Cl)cc1Cl |  | inconclusive: 79.4 µM [inhibitor, single point]
52 | O=C(Nc1cc(-c2ccccc2)[nH]n1)c1ccccc1F |  | inconclusive: 100 µM [inhibitor, single point]
53 | O=[N+]([O-])c1ccc2cnn(-c3cccc(C(F)(F)F)c3)c2c1 |  | inconclusive: 70.8 µM [inhibitor, single point]
54 | O=C1CCN(CCCN2CCC(=O)NC2=S)C(=S)N1 |  | inconclusive: 56.2 µM [inhibitor, partial curve, poor fit]
55 | CN(C)c1nc(N/N=C/c2c[nH]c3ccccc23)nc(N2CCOCC2)n1 |  | inconclusive: 17.8 µM [inhibitor, full curve]
56 | CN(CCCNC(=O)c1nc2ccccc2c(=O)[nH]1)C(=O)c1cccc(Cl)c1 |  | inconclusive: 22.4 µM [inhibitor, partial curve, poor fit]
57 | CC(C)(C)n1nc(N)c2cc([N+](=O)[O-])ccc21 |  | inconclusive: 56.2 µM [inhibitor, partial curve, poor fit]
58 | Cc1ccc(S(=O)(=O)c2cn(CC(=O)Nc3cccc(C)c3)c3cc4c(cc3c2=O)OCO4)cc1 |  | inconclusive: 50.1 µM [inhibitor, partial curve, poor fit]
59 | Cc1ccc(/C=C/C(=O)NCCc2c[nH]c3ccccc23)o1 |  | inactive and inconclusive: 25.1 µM [inhibitor, partial curve, poor fit]
60 | CCC1CCc2nc(N)c(C#N)c(-c3ccccc3Cl)c2C1 (stereo unspecified) |  | inconclusive: 126 µM [inhibitor, single point]
61 | N#Cc1ccc(NC(=S)NC(=O)CCc2ccc(S(=O)(=O)N3CCOCC3)cc2)cc1 | inactive: -2.95% | 
62 | COc1ccc(C(C)(C)C)cc1NC(=O)CCn1[nH]c(=O)ccc1=O |  | inconclusive: 50.1 µM [inhibitor, partial curve, poor fit]
63 | CC1CCC(C(=O)NC(C(=O)OCC(=O)c2ccc(Br)cc2)C(C)C)CC1 (stereo unspecified) |  | inconclusive: 126 µM [inhibitor, partial curve, poor fit]
64 | CCN(CC)CCCN1C(=O)C(=O)/C(=C(/O)c2ccc(OC)cc2)C1c1ccco1 (stereo unspecified) |  | inconclusive: 126 µM [inhibitor, partial curve, poor fit]
65 | O=C(Nc1nc2ccccc2[nH]1)C1CC1 |  | inconclusive: 100 µM [inhibitor, single point]
66 | COc1ccc(Cn2c(N)c(C#N)c3nc4ccccc4nc32)cc1OC | inactive: -17.9% | 
